Two substances from patent publication US20110033883A1, “IMAGING DYES AND USE THEREOF” (priority 2007, published 2011) can be followed below.

Data set [1] is described as follows: Emission intensity and lifetime in DPPG liposomes. It is filed as physicochemical.
Data set [2] has as its system Sp2/0-Ag 14 myeloma cells. Put plainly: Luminescence lifetime imaging (FLIM) of myeloma cells. It is filed as cell-based, mouse.
Data set [3] in a line: Oxygen quenching of luminescence (Stern-Volmer). It is filed as physicochemical. As for the experimental part: Different oxygen concentrations were adjusted by streaming various O2—N2-mixtures through the solution until equilibrium was reached. The oxygen concentration was measured with an optical O2 electrode (Visiferm DO120, Hamilton). The fluorescence lifetime of the equilibrated dye solutions was measured in a closed-system flow cell.
In air saturated PBS solutions the lifetime drops down to 540 ns when the pic ligand is neutral, and even down to 350 ns, when the pic moiety is deprotonated. Stern-Volmer plots are linear up to air saturated solutions and then start levelling of. The Stern-Volmer quenching constants range actually vary very little with pH 2100 M^−1 for pH 10 to around 2900 M^−1 when the pic moiety is in its neutral state. The corresponding bimolecular rate constants vary between around […] when the pic moiety is deprotonated to […] when the pic moiety is in its neutral state, which is essentially the same within experimental error. This means that within the limited range of the cellular environment the O2 concentration within a cell can be assessed independently of pH using this dye.

Data set [4] is described as follows: Luminescence quantum yield and lifetime in buffered aqueous solution. It is filed as physicochemical.

As to “[Ru(dppz)2(PicH2)]ClO4 [[Ru(dppz)2PICH2]^2+]”, in data set [1] (DPPG liposome in PBS buffer), the “τ (μs) in DPPG liposome in PBS buffer Biexponential decay τ1” value came to 0.36 μs and the “τ (μs) in DPPG liposome in PBS buffer Biexponential decay τ2” value was found to be 0.1 μs. In addition, the “emission intensity in the presence of DPPG liposomes” value in data set [1] (after 24 hours, absorbance matched solutions) is listed as “double the intensity”.

Regarding “[Ru(bpy)2(PicH-R8)]^n+: ruthenium centre with two bipyridine ligands and one picH ligand; octaarginine coupled to pic carboxy end via Ahx spacer, amide linkage (RRRRRRRR; Ru(bpy)2 picH complex via Ahx spacer)”, the “luminescence lifetime (FLIM)” value is listed as 513 ns in data set [2] (background region, myeloma cells incubated 12 minutes); 452 ns in data set [2] (cell membrane region); 540 ns in data set [2] (cytoplasm); 709 ns in data set [2] (nucleus). Also, the “Stern-Volmer quenching constant (oxygen)” value in data set [3] (pH 10) is 2100 M⁻¹; in data set [3] (pic moiety in its neutral state), “around 2900 M^−1”. In addition, the “luminescence lifetime τ” value in data set [4] (PBS buffer, pH 6, PicH moiety neutral) is recorded as 860 ns; in data set [4] (degassed PBS, pH 11, imidazole deprotonated), 521 ns. Moreover, the luminescence lifetime in data set [4] (air saturated PBS, pic ligand neutral) turned out to be 540 ns; in data set [4] (air saturated PBS, pic moiety deprotonated), 350 ns; in data set [4] (pH 7 buffered aqueous solution, aerated) it was 480 ns; in data set [4] (pH 7 buffered aqueous solution, deaerated), 775 ns. Moreover, in data set [4] (neutral pH (pH 7) buffered aqueous solution), the “quantum yield of the emission” value is given as 0.06. Also, the “luminescence lifetime from calibration plot” value in data set [4] (pH 7.5, air saturated PBS) is recorded as 451 ns; in data set [4] (pH 7.5, degassed aqueous solution), 779 ns.
